These results are taken from patent EP4763867A1 (Shanghai Mabgen Biotech Ltd., dated 2026).

This assay addresses Biotinylated cynomolgus monkey PD-1 (AcroBiosystems, PD1-C82E6) (cynomolgus monkey). Kind of assay: screening of a VHH yeast display library with biotinylated antigens.

These are yes or no findings as the source states them, for the method shown. Binding calls can cover weak binding; strength is not graded here.

B1: A17 (VHH)
VHH: EVQVVESGGGLVQPGGSLRLSCVASGLTFSDYSMSWYRQAPGKERELVAIISGSGVIAHYVDSVKGRFTISRDNAKSTVYLQMVSLKPEDRGVYYCRAVSDWDDYWGQGTQVTVSS
notes: also called Variable region of A17
As for B1, the binding entry is “binds”.
